PubChem BioAssay AID652248 – Drosophila RNAi Screening Center, 2013
In all, the deposit lists 863 reagents; this is a random part of them. Of all reagents, 32 (3.7%) were called active. 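Calls also used reproducibility and a similarity ranking whose scores are not deposited; many active genes show only modest elongated scores.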 Not all columns of the deposit are shown. The record does not give: the amount of reagent, the time to read-out.

- Aim: 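Kinase and phosphatase regulators of cell lengthening and shape variety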 (primary screen)
- System: cultured Drosophila hemocytes
- Reagent: long dsRNA against Drosophila genes
- Detection: 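Automated microscopy of stained actin, tubulin and nuclei; single-cell shape measures assigned to five reference shape types, giving a score per dsRNA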
- Scale: elongated score: higher = more elongated bipolar cells; normal round score: higher = more normal rounded cells
- Call rule: 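Hits show a significant increase of elongated cells; higher rank given where elongated cells rose as other shape types fell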

For Coq8 [DRSC19900] the deposit lists elongated score, rep 1 = 0.18; normal round score, rep 1 = -0.17; inactive.
Knock-down of btl [DRSC11331] came out at: elongated score, rep 1 = -0.53; normal round score, rep 1 = 0.33; inactive.
With knock-down of CG15528 [DRSC15065], the screen gave elongated score, rep 1 = 0.35; normal round score, rep 1 = -0.03; inactive.
Against babo [DRSC07581], the values are elongated score, rep 1 = -0.21; normal round score, rep 1 = -0.73; inactive.
Against tefu [DRSC16060], the entry reads elongated score, rep 1 = -0.17; normal round score, rep 1 = 0.41; inactive.
Silencing of Mipp2 [DRSC18682] gave: elongated score, rep 1 = 2.12; elongated score, rep 2 = -0.53; normal round score, rep 1 = -0.22; inactive.
Against Cdc14 [DRSC03013], the entry reads elongated score, rep 1 = -0.53; normal round score, rep 1 = 0.9; inactive.
Knock-down of Cdc14 [DRSC26430] gave: elongated score, rep 1 = 0.22; normal round score, rep 1 = -0.13; inactive.
Knock-down of I-2 [DRSC11194] resulted in: elongated score, rep 1 = -0.53; normal round score, rep 1 = 0.77; inactive.
Against I-2 [DRSC23300], the values are elongated score, rep 1 = -0.2; normal round score, rep 1 = -0.32; inactive.
With knock-down of Csk [DRSC23272] the results were elongated score, rep 1 = 0.39; normal round score, rep 1 = -0.53; inactive.
Csk [DRSC26697] showed elongated score, rep 1 = 0.31; normal round score, rep 1 = -1.16; inactive.
For Pkcdelta [DRSC19356], the entry reads elongated score, rep 1 = -0.53; normal round score, rep 1 = -1.18; inactive.
Depletion of Cdk1 [DRSC03504] gave: elongated score, rep 1 = 5.77; normal round score, rep 1 = -6.09; inactive.
Against polo [DRSC11384] the deposit lists elongated score, rep 1 = 5.02; elongated score, rep 2 = 2.23; normal round score, rep 1 = -2.27; active.
With knock-down of polo [DRSC22359], the record shows elongated score, rep 1 = 4.74; normal round score, rep 1 = -0.15; active.
After knock-down of Wsck [DRSC13682], the record shows elongated score, rep 1 = 0.76; normal round score, rep 1 = -3.61; inactive.
Wsck [DRSC28781] showed elongated score, rep 1 = 2.89; normal round score, rep 1 = -4.91; inactive.
Depletion of awd [DRSC16906] resulted in: elongated score, rep 1 = 2.65; normal round score, rep 1 = -1.85; inactive.
Pp2C1 [DRSC23287] scored elongated score, rep 1 = -0.08; normal round score, rep 1 = -0.31; inactive.
Pp2C1 [DRSC28091] showed elongated score, rep 1 = 0.04; normal round score, rep 1 = -1.46; inactive.
For Pka-R1 [DRSC11875] the deposit lists elongated score, rep 1 = -0.53; normal round score, rep 1 = 0.57; inactive.
After knock-down of Pmvk [DRSC02032], the screen gave elongated score, rep 1 = -0.53; normal round score, rep 1 = 0.08; inactive.
With knock-down of Wee1 [DRSC03635], the record shows elongated score, rep 1 = -0.41; normal round score, rep 1 = -0.81; inactive.
Knock-down of Wee1 [DRSC23318] resulted in: elongated score, rep 1 = -0.12; normal round score, rep 1 = -1.93; inactive.

7 consecutive records from above, for reference:
Wsck [DRSC13682] — elongated score, rep 1 = 0.76; normal round score, rep 1 = -3.61; activity call = inactive
Wsck [DRSC28781] — elongated score, rep 1 = 2.89; normal round score, rep 1 = -4.91; activity call = inactive
awd [DRSC16906] — elongated score, rep 1 = 2.65; normal round score, rep 1 = -1.85; activity call = inactive
Pp2C1 [DRSC23287] — elongated score, rep 1 = -0.08; normal round score, rep 1 = -0.31; activity call = inactive
Pp2C1 [DRSC28091] — elongated score, rep 1 = 0.04; normal round score, rep 1 = -1.46; activity call = inactive
Pka-R1 [DRSC11875] — elongated score, rep 1 = -0.53; normal round score, rep 1 = 0.57; activity call = inactive
Pmvk [DRSC02032] — elongated score, rep 1 = -0.53; normal round score, rep 1 = 0.08; activity call = inactive

Continued:
CG11438 [DRSC11660] showed elongated score, rep 1 = -0.42; normal round score, rep 1 = -0.49; inactive.
With knock-down of Mkk4 [DRSC16739] the results were elongated score, rep 1 = -0.53; normal round score, rep 1 = 1.14; inactive.
Knock-down of Mkk4 [DRSC29113] came out at: elongated score, rep 1 = 2.72; normal round score, rep 1 = -1.37; inactive.
Depletion of asp [DRSC16903] came out at: elongated score, rep 1 = -0.26; normal round score, rep 1 = -0.43; inactive.
After knock-down of wun2 [DRSC07566], the screen gave elongated score, rep 1 = 0.56; normal round score, rep 1 = -2; inactive.
After knock-down of Gbs-76A [DRSC11081] the results were elongated score, rep 1 = 0.06; normal round score, rep 1 = -1.28; inactive.
After knock-down of Src64B [DRSC08700], the record shows elongated score, rep 1 = -0.53; normal round score, rep 1 = -0.23; inactive.
After knock-down of RIOK1 [DRSC09853], the record shows elongated score, rep 1 = 0.65; normal round score, rep 1 = -1.19; inactive.
CG2201 [DRSC03721] showed elongated score, rep 1 = 0.82; normal round score, rep 1 = -1.83; inactive.
After knock-down of yata [DRSC15408], the record shows elongated score, rep 1 = -0.53; normal round score, rep 1 = -1.8; inactive.
CaMKI [DRSC17162] gave elongated score, rep 1 = -0.53; elongated score, rep 2 = -0.53; normal round score, rep 1 = -0.62; inactive.
With knock-down of CG7156 [DRSC16207], the screen gave elongated score, rep 1 = -0.53; normal round score, rep 1 = 0.27; inactive.
Silencing of CG7156 [DRSC27345] came out at: elongated score, rep 1 = 1.51; normal round score, rep 1 = -1.33; inactive.
With knock-down of InR [DRSC16717] the results were elongated score, rep 1 = -0.53; normal round score, rep 1 = -0.87; inactive.
Tcs5 [DRSC09774] showed elongated score, rep 1 = 3.2; normal round score, rep 1 = -2.5; inactive.
Silencing of Pitslre [DRSC11874] resulted in: elongated score, rep 1 = -0.17; normal round score, rep 1 = -0.77; inactive.
Depletion of Pitslre [DRSC23346] came out at: elongated score, rep 1 = 5.88; normal round score, rep 1 = -1.65; inactive.
Depletion of hep [DRSC19839] resulted in: elongated score, rep 1 = -0.38; normal round score, rep 1 = -1.18; inactive.
Depletion of hep [DRSC20337] came out at: elongated score, rep 1 = -0.9; normal round score, rep 1 = -0.14; inactive.
Depletion of hep [DRSC26331] came out at: elongated score, rep 1 = -0.53; normal round score, rep 1 = 0.18; inactive.
